These are yes or no findings as the source states them, for the method shown. Some entries that bind do so weakly or less than the wild type.

By UniProt entry, the sequences of proteins in these tests, tags left out. Where a name states a change or a piece, a line headed by the entry shows the natural chain unless it says otherwise.
UniProt Q15554: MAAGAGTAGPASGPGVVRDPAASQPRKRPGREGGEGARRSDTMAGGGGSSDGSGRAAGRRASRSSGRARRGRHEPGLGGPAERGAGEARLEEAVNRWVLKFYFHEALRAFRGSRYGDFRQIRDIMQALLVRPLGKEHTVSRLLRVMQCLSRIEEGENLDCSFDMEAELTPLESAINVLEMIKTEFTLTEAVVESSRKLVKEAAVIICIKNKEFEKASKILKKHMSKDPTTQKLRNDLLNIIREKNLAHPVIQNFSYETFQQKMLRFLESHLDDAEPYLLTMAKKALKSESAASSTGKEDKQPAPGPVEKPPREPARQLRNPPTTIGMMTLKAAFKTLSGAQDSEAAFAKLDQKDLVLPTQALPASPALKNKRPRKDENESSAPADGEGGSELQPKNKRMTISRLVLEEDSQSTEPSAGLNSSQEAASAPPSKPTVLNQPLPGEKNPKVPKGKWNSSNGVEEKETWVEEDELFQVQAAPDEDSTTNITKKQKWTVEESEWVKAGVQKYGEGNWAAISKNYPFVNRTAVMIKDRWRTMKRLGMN

Test [1] has as its target T1, POT1-TPP1-TIN2(1-354) shelterin sub-complex (UniProt Q9NUX5).
T1 sequence 1: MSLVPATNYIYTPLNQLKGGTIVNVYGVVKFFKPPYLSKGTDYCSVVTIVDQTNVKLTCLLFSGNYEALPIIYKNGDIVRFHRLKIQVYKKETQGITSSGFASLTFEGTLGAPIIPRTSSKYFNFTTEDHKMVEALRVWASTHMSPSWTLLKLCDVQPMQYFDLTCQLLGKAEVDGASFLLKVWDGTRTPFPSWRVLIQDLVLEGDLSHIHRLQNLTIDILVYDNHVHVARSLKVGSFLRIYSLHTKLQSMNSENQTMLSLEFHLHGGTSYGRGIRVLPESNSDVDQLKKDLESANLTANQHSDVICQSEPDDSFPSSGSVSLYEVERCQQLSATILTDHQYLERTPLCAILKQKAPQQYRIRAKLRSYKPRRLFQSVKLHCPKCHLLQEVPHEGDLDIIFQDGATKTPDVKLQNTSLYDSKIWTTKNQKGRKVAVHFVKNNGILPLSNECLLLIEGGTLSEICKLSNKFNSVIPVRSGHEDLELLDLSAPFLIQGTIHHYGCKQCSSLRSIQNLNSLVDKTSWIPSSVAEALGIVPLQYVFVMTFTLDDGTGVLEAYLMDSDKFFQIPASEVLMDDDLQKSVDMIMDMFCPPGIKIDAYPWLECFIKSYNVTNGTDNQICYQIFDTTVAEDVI
T1 sequence 2: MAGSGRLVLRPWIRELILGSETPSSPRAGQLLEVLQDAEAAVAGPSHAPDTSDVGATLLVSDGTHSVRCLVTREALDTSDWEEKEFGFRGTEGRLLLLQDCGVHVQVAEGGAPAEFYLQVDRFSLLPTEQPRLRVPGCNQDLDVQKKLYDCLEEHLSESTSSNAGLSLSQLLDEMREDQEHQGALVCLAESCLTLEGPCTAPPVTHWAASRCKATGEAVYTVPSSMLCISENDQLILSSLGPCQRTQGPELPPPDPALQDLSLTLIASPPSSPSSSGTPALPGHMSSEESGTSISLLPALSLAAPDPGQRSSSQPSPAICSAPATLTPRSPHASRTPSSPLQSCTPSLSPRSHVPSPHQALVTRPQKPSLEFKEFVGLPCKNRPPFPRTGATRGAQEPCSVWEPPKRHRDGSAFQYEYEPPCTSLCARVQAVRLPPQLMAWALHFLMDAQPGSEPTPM
T1 sequence 3: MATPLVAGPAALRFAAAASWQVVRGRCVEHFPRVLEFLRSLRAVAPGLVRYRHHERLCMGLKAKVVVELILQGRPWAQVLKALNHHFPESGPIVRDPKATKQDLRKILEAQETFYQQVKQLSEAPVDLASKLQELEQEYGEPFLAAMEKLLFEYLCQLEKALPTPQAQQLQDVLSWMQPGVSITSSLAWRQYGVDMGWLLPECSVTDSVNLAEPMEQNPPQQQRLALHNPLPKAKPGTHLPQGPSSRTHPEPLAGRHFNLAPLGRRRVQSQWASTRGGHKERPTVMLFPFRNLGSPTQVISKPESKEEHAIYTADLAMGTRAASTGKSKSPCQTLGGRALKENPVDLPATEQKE
As to the kind of experiment: SEC; analytical SEC, Superdex 200 Increase 10/300 GL, 300 mM NaCl, 20 mM Hepes pH 7.5, 1 mM TCEP; 200 pmol POT1-TPP1-TIN2(1-354) combined with 400 pmol TRF2-RAP1, 30 min at 4 °C; each also run alone; both purified. For orientation: In gel filtration, larger molecules generally elute earlier.

In test [2] the target is T2, TIN2(1-354), C-terminal truncation variant (UniProt Q9BSI4).
T2 sequence: T1 sequence 3
The test is described as above.

“TRF2-RAP1 shelterin sub-complex (from UniProt Q15554 1-542; Q9NYB0 1-399)”: the binding result in test [1] and in test [2] was “binds” throughout.

(Values after article PMC8853558.)
